Results are given in words; binding and its absence hold for the method and conditions named. In cells and extracts the contact can be indirect. Some results given as binding are weak or reduced against the parent protein; the word gives no strength. Where a sequence is shown, tags or fusion partners need not be part of it.

The test addresses T1, meiotic nuclear divisions 1 (MND1), Flag-tagged (UniProt Q9BWT6).
T1 sequence: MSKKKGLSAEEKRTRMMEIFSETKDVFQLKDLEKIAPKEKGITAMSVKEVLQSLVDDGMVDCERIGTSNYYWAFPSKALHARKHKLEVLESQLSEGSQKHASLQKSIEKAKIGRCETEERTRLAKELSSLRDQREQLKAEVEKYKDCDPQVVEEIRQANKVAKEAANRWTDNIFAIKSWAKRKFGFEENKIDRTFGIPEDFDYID
In words: co-IP; CO-IP kit (Absin), detection by Western blot; cells and direction of the precipitation not given.

B1: transketolase (TKT) (protein, UniProt P29401 1-623)
chain: MESYHKPDQQKLQALKDTANRLRISSIQATTAAGSGHPTSCCSAAEIMAVLFFHTMRYKSQDPRNPHNDRFVLSKGHAAPILYAVWAEAGFLAEAELLNLRKISSDLDGHPVPKQAFTDVATGSLGQGLGAACGMAYTGKYFDKASYRVYCLLGDGELSEGSVWEAMAFASIYKLDNLVAILDINRLGQSDPAPLQHQMDIYQKRCEAFGWHAIIVDGHSVEELCKAFGQAKHQPTAIIAKTFKGRGITGVEDKESWHGKPLPKNMAEQIIQEIYSQIQSKKKILATPPQEDAPSVDIANIRMPSLPSYKVGDKIATRKAYGQALAKLGHASDRIIALDGDTKNSTFSEIFKKEHPDRFIECYIAEQNMVSIAVGCATRNRTVPFCSTFAAFFTRAFDQIRMAAISESNINLCGSHCGVSIGEDGPSQMALEDLAMFRSVPTSTVFYPSDGVATEKAVELAANTKGICFIRTSRPENAIIYNNNEDFQVGQAKVVLKSKDDQVTVIGAGVTLHEALAAAELLKKEKINIRVLDPFTIKPLDRKLILDSARATKGRILTVEDHYYEGGIGEAVSSAVVGEPGITVTHLAVNRVPRSGKPAELLKMFGIDRDAIAQAVRGLITKA
Turning to B1, the binding result was “binds”.

For the origin of these results see article PMC10566187.
